From PubChem BioAssay AID743255 (National Center for Advancing Translational Sciences (NCATS), 2014)
The campaign covered roughly 390,000 compounds. About 910 (0.23%) were called active. The shares of active, inactive and inconclusive entries below differ from those in the screen. Calls come from the whole dose curve; as a rule, active = well fitted inhibition curve with a large enough effect; inconclusive = small, poorly fitted or top-dose-only effect; inactive = no such curve, though single readings can be large or run the other way. A potency beside an inconclusive call is a rough fit, not a confirmed value.

Sequences of proteins named here, by UniProt entry; tags and fusion partners are left off. A change or cut given only in a name is not applied to a line headed by its entry.
UniProt O94782: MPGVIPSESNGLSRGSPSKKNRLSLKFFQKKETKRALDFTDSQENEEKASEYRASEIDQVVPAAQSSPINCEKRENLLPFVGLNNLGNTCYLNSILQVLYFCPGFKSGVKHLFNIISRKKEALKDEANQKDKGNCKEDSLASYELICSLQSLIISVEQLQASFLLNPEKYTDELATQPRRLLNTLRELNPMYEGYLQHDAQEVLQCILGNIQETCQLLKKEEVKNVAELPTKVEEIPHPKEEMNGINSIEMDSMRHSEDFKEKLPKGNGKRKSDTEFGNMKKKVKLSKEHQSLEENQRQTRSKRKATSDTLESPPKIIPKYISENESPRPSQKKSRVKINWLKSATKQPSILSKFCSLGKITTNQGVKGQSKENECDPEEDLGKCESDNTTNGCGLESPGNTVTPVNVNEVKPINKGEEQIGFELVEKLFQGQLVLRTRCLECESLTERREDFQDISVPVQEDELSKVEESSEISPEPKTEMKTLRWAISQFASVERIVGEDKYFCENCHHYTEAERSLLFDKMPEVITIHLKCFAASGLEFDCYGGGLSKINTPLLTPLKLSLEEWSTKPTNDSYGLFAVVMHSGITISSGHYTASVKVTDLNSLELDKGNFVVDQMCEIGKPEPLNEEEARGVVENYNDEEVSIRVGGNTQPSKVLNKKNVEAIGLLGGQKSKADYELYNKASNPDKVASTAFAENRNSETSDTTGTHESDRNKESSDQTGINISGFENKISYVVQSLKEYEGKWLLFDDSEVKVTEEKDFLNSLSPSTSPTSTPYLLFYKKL

target: Ubiquitin carboxyl-terminal hydrolase 1 (Homo sapiens) (UniProt O94782); test: Inhibitors of USP1/UAF1: Primary Screen; details: recombinant USP1/UAF1, Ub-Rhodamine cleavage fluorescence; activity change, negative = inhibition: at 57.1 µM (top of the series); note: nearly all actives have a fitted effect of over 60% in size
How it was run: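 High-throughput fluorogenic screen: 1nM USP1/UAF1 complex, Ub-Rho substrate 150nM final, 50mM HEPES pH 7.8 with 0.5mM EDTA, 0.1 mg/ml BSA, 1mM TCEP and 0.01% Tween-20.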
% is set by controls: 0 for no effect and ±100 for the full control effect; potency is the fitted concentration of half-maximal effect.

With O=S(=O)(Nc1ccc(N=Nc2ccccc2)cc1)c1ccccc1 as the compound, how does the Potency read?
The Potency was inconclusive: 0.0794 µM [inhibitor, full curve, poor fit].

Which Potency does the source give for CCN1C(=O)c2cccc3c(N)ccc1c23 here?
The Potency was inconclusive: 12.6 µM [inhibitor, partial curve].

With CNC(=S)/N=C/NOCc1ccc(Cl)cc1Cl as the compound, how does the Potency read?
The Potency was inconclusive: 15.8 µM [inhibitor, partial curve].

For CCOc1ccc(CC(=O)NC2CC(=O)N(c3ccc(C)c(C)c3)C2)cc1 (stereo not given), which Potency is on record?
Its Potency is inconclusive: 28.2 µM [inhibitor, single point].

COc1ccc(-c2cc(C(=O)Nc3ccc4c(c3)OCO4)no2)cc1OC was tested. Which Potency did it give?
Its Potency is inconclusive: 14.1 µM [inhibitor, partial curve].

Which Potency does the source give for O=C(O)CN1C(=O)S/C(=C\c2ccc3c(c2)OCO3)C1=O here?
Its Potency is inconclusive: 1.41 µM [inhibitor, full curve, poor fit].

How did the Potency turn out when Cc1c(Cl)cccc1NC(=S)N1CCN(C(=O)c2ccco2)CC1 was run?
The Potency was “inactive”.

C=CCNC(=O)c1ccc2c3n(nc2c1)-c1ccc(C)cc1CO3 was tested. Which activity change, negative = inhibition did it give?
Its activity change, negative = inhibition is inconclusive: -30.4% [inhibitor].

For CCN1CC=C2C(C#N)=C(N)C(C#N)(C#N)C(c3cc(Cl)ccc3Cl)C2C1 (stereo not given), which Potency is on record?
The Potency was “inactive”.

How did the Potency turn out when CC[C@]12c3[nH]c4cc(-c5ccco5)ccc4c3CCN1C(=O)[C@@H](CC(=O)NCCC1=CCCCC1)C[C@@H]2C(=O)N1CCN(C(=O)C2CC2)CC1 was run?
The Potency was “inactive”.

COc1ccccc1CNC(=O)CCCn1nc(C)c2sc3ccccc3c2c1=O was tested. Which Potency did it give?
Its Potency is inconclusive: 7.94 µM [inhibitor, partial curve, poor fit].

How did the Potency turn out when COc1cccc2c1C(=O)c1c(O)c3c(c(O)c1C2=O)C[C@](O)(C(C)=O)C[C@H]3O[C@@H]1C[C@@H](N)[C@@H](O)[C@@H](C)O1 was run?
Its Potency is active: 12.6 µM.

Which Potency does the source give for CC(C)C1C(=O)N(Cc2cn(CCC3OCCCO3)nn2)CCS(=O)(=O)N1Cc1ccc(-c2cccc(N(C)C)c2)cc1 (stereo not given) here?
The Potency was inconclusive: 0.251 µM [inhibitor, full curve, poor fit].

How did the Potency turn out when COC(=O)c1ccc(NC(=O)CSc2cn(CC(=O)N3CCCCCC3)c3ccccc23)cc1 was run?
Its Potency is inconclusive: 0.251 µM [inhibitor, full curve, poor fit].

COc1cc(CC(=O)OCC(=O)N2CC(=O)Nc3ccccc32)cc(OC)c1OC was tested. Which Potency did it give?
The Potency was “inactive”.

With COc1ccc(CNC(=O)C2CCN(C(=O)c3ccc(-n4ccc5ccccc54)s3)CC2)cc1 as the compound, how does the Potency read?
The Potency was “inactive”.

Which Potency does the source give for COC(=O)CCCC1=CC2=CC(=O)C(C)(OC(=O)c3cccs3)C(=O)C2=CN1CCCCO (stereo not given) here?
The Potency was inconclusive: 50.1 µM [inhibitor, partial curve].

How did the Potency turn out when N#CC1=C(N)OC2=C(CCc3ccccc32)C1c1ccccc1Cl (stereo not given) was run?
The Potency was “inactive”.

With N#Cc1nc(-c2ccco2)oc1N1CCN(c2ccccc2)CC1 as the compound, how does the Potency read?
The Potency was inconclusive: 14.1 µM [inhibitor, partial curve].

How did the Potency turn out when C[C@H]1NS(=O)(=O)c2cc(Cl)ccc2O[C@@H]1c1ccccc1 was run?
Its Potency is inconclusive: 44.7 µM [inhibitor, partial curve].

Cc1cc(C(=O)NNC(=S)NCc2ccco2)n(C)n1 was tested. Which Potency did it give?
The Potency was “inactive”.

Which Potency does the source give for CCn1c(=O)cc(SCC(=O)N2CCN(c3cc(C)ccc3C)CC2)c2ccccc21 here?
Its Potency is inconclusive: 20 µM [inhibitor, partial curve].

How did the Potency turn out when COc1ccc(NC(=O)NCCCCc2ccccc2)cc1 was run?
The Potency was “inactive”.

With CC(C)C(NS(=O)(=O)c1ccc2c(c1)oc(=O)n2C)C(=O)N1CCN(Cc2ccccc2)CC1 (stereo not given) as the compound, how does the Potency read?
Its Potency is inconclusive: 0.794 µM [inhibitor, full curve, poor fit].

For COC(=O)c1[nH]c2cc(OC)ccc2c1NC(=O)CCN1CCN(c2cccc(C)c2C)CC1, which Potency is on record?
Its Potency is “inactive”.

CCOC(=O)c1cc(OC(=O)c2ccc(OC)c(OC)c2)n(-c2ccccc2)n1 was tested. Which Potency did it give?
The Potency was inconclusive: 12.6 µM [inhibitor, partial curve].

Which Potency does the source give for CSc1nc(N(C)CCO)c2sc3nc(-c4ccco4)c4c(c3c2n1)CCC4 here?
The Potency was inconclusive: 39.8 µM [inhibitor, single point].

How did the Potency turn out when CCCCc1nc2sc3c(SCCN(C)C)ncnc3c2c2c1CCC2 was run?
The Potency was inconclusive: 7.08 µM [inhibitor, single point].

For CCOC(=O)N1CCc2c(sc3c2c(=O)n(-c2ccc(Cl)cc2)c(=O)n3CC(=O)Nc2ccccc2)C1, which Potency is on record?
Its Potency is inconclusive: 50.1 µM [inhibitor, partial curve, poor fit].

Cc1ccc(C(=O)CSc2nnc(-c3snnc3C)n2C2CC2)cc1 was tested. Which Potency did it give?
The Potency was inconclusive: 56.2 µM [inhibitor, partial curve, poor fit].

Which Potency does the source give for O=C(/C=C/c1ccco1)NC(=S)Nc1cccc(C(=O)O)c1 here?
Its Potency is inconclusive: 35.5 µM [inhibitor, partial curve].

How did the Potency turn out when C[C@@H]1CC=C[C@H]2[C@H]1C(=O)N(Cc1ccccc1)[C@H]2c1ccc(-c2ccoc2)cc1F was run?
The Potency was inconclusive: 10 µM [inhibitor, partial curve].

CCc1ccc(NC(=O)C2CCCN(S(=O)(=O)c3ccc4c(c3)CC(C)N4C(C)=O)C2)cc1 (stereo not given) was tested. Which Potency did it give?
The Potency was “inactive”.

How did the Potency turn out when Cc1nc(N2N=C3/C(=C/c4ccc(F)cc4)CCCC3C2c2ccc(F)cc2)sc1C(=O)N(C)C (stereo not given) was run?
Its Potency is inconclusive: 20 µM [inhibitor, partial curve].

With Cc1ccc(CNc2nc(-c3cccs3)nc3ccccc23)cc1 as the compound, how does the Potency read?
The Potency was inconclusive: 50.1 µM [inhibitor, partial curve].

Which Potency does the source give for N#CC1=C(N)OC2=C(CC/C2=C\c2ccccc2)C1c1ccccc1 (stereo not given) here?
Its Potency is inconclusive: 7.08 µM [inhibitor, single point].

For Clc1ccccc1-c1nnc2sc(-c3ccncc3)nn12, which Potency is on record?
The Potency was “inactive”.

How did the Potency turn out when CCOC(=O)[C@H]1[C@H]2COc3cc(OC)ccc3[C@@H]2N2C(=O)c3ccc(F)cc3NC(=O)[C@@]12C was run?
The Potency was inconclusive: 89.1 µM [inhibitor, partial curve, poor fit].

Which Potency does the source give for O=C(c1nn2c(C(F)(F)F)cc(-c3ccc(F)cc3)nc2c1Cl)N1CCOCC1 here?
Its Potency is “inactive”.

With Cc1cccc(CNC(=O)C2CCN(c3nc4ccc(Cl)cc4[nH]3)CC2)c1 as the compound, how does the Potency read?
Its Potency is inconclusive: 7.94 µM [inhibitor, partial curve, poor fit].

How did the Potency turn out when O=C(CN(C(=O)CCC(=O)Nc1nccs1)c1ccc2c(c1)OCO2)NCc1ccccc1 was run?
Its Potency is inconclusive: 39.8 µM [inhibitor, single point].

For CC(C)(C)c1ccc(NC(=O)CSc2nnc3scc(-c4ccccc4)n23)cc1, which Potency is on record?
Its Potency is inconclusive: 17.8 µM [inhibitor, partial curve].

Which Potency does the source give for CC(C)(C)c1ccc(NC(=O)N2CCN(c3ccc([N+](=O)[O-])cn3)CC2)cc1 here?
Its Potency is “inactive”.

With O=C(NCC1CC1(Cl)Cl)Nc1ccc(Cl)c(Cl)c1 (stereo not given) as the compound, how does the Potency read?
Its Potency is inconclusive: 50.1 µM [inhibitor, single point].

How did the Potency turn out when Cc1cccc(NC(=O)NNC(=O)c2cc3ccccc3cc2O)c1C was run?
The Potency was inconclusive: 50.1 µM [inhibitor, partial curve, poor fit].

Which Potency does the source give for O=C(CNC(=O)C1COc2ccccc2O1)Nc1ccc(F)c(F)c1 (stereo not given) here?
Its Potency is inconclusive: 7.94 µM [inhibitor, partial curve, poor fit].

For COc1cccc(N2CN(C3CCCCC3)CNC2=S)c1, which Potency is on record?
The Potency was inconclusive: 5.01 µM [inhibitor, partial curve].

For N#CCN=C(c1ccccc1)c1ccccc1, which Potency is on record?
The Potency was inconclusive: 0.282 µM [inhibitor, full curve, poor fit].

How did the Potency turn out when CC(C)(C)NC(=O)c1cnn2c(C(F)F)cc(-c3ccccc3)nc12 was run?
Its Potency is inconclusive: 1.41 µM [inhibitor, full curve].

N#CC1=C(SCC(=O)c2ccccc2)NC2=C(C(=O)CCC2)C1c1ccco1 (stereo not given) was tested. Which Potency did it give?
Its Potency is “inactive”.

COc1ccc(OC)c(C2C(C(C)=O)=C(O)C(=O)N2CCN2CCOCC2)c1 (stereo not given) was tested. Which Potency did it give?
Its Potency is inconclusive: 50.1 µM [inhibitor, partial curve].

How did the Potency turn out when Cc1cc2ccccc2n1CCC(=O)O was run?
The Potency was inconclusive: 39.8 µM [inhibitor, partial curve].

COc1ccc(NC(=S)N(CCc2c(C)[nH]c3ccc(C)cc23)Cc2ccco2)cc1 was tested. Which Potency did it give?
Its Potency is inconclusive: 31.6 µM [inhibitor, partial curve].

How did the Potency turn out when Cc1ccc(CC2CC(=O)N(c3ccc(C)cc3)C2=O)cc1 (stereo not given) was run?
Its Potency is inconclusive: 20 µM [inhibitor, partial curve, poor fit].

With CC[n+]1ccc(C[n+]2ccccc2)c2ccccc21 as the compound, how does the Potency read?
Its Potency is “inactive”.

How did the Potency turn out when CCOc1cc(CNCCO)cc(Br)c1OCc1ccccc1Cl was run?
The Potency was “inactive”.

With O=C1Nc2ccccc2Cc2ccccc21 as the compound, how does the Potency read?
The Potency was “inactive”.

Cc1ccc(-c2noc(CCC(=O)N3CCN(c4cc(C)ccc4C)CC3)n2)cc1 was tested. Which Potency did it give?
Its Potency is inconclusive: 39.8 µM [inhibitor, partial curve].

With CCOC(=O)c1ccc(NC(=O)CC2C(=O)N(c3cccc(OC)c3)C(=O)N2Cc2ccc(OC)cc2)cc1 (stereo not given) as the compound, how does the Potency read?
The Potency was inconclusive: 0.0316 µM [inhibitor, full curve, poor fit].

How did the Potency turn out when COc1cc(/C=C/C(=O)c2c(O)cc(C)oc2=O)cc(OC)c1O was run?
Its Potency is “inactive”.

Which Potency does the source give for Cc1ccc(S(=O)(=O)Nc2nc3ccccc3nc2NCc2ccco2)cc1 here?
The Potency was inconclusive: 44.7 µM [inhibitor, partial curve, poor fit].

With CN(C)S(=O)(=O)c1cccc(NC(=O)COC(=O)CCC(=O)c2cccs2)c1 as the compound, how does the Potency read?
The Potency was inconclusive: 7.94 µM [inhibitor, partial curve, poor fit].

Which Potency does the source give for COc1ccccc1N1CCN(C(=O)CCNS(=O)(=O)c2ccc3c(c2)CCN3C(=O)C2CC2)CC1 here?
Its Potency is inconclusive: 0.631 µM [inhibitor, full curve].

CCOC(=O)C(CC)(CC)C(=O)/C=C/c1cccc(Br)c1 was tested. Which Potency did it give?
The Potency was “inactive”.

With OC(CNC1Cc2ccccc2C1)COc1ccc(Cl)cc1 (stereo not given) as the compound, how does the Potency read?
The Potency was “inactive”.
